Experimental data reported in the supplement of paper PMC5949888.
Most values lie at the floor of the assay. Slopes are relative: functional sequences can read slightly below zero.

Each substance was assayed on Saccharomyces cerevisiae PS128 hsf1 delta, HSF1(1-493) fusion (assay: growth estimate (transactivation domain function in HSF1 fusion, heat-shock survival) (a.u. (slope of normalised read count over time)); higher = stronger growth at 37°C, i.e. more transactivation activity). Settings: library: random library.

Row | Substance | growth estimate
1 | IVLPAHGRLKVTCS | < -0.25
2 | IVLYWRAH | < -0.25
3 | IVMGKNSELHFCNKVHARPI | < -0.25
4 | IVRAWRLHRGSCDLNHET | < -0.25
5 | IVRGGSGLFGILAVNRWRPA | < -0.25
6 | IVRYRSAECRWIAERRSDPR | < -0.25
7 | IVSIALQWKHW | < -0.25
8 | IVSSVS | < -0.25
9 | IVTQVMWAGGRYLTSSV | < -0.25
10 | IVTSGLSKTFVILVQSRVWR | < -0.25
11 | IWAILIQAVANKLVCRLSSC | 0.133
12 | IWARSSIDPRQHGVSIKDK | < -0.25
13 | IWFTHPSVCILVNKIRFPVP | < -0.25
14 | IWHCGFWNCAPID | -0.188
15 | IWHLVAGIGAPPWY | -0.221
16 | IWLSL | < -0.25
17 | IWSVCVPGTISESDSRS | < -0.25
18 | IWTCSGADIEVKGFSWIAAS | < -0.25
19 | IWYLIMTCTVVLRLVKCYRV | < -0.25
20 | IYACTEIYLRSPNGQFELPR | < -0.25
21 | IYARVLCLRS | -0.229
22 | IYCRTRVNTRLGNRREAHIG | < -0.25
23 | IYETLSRANGPGDPPELPAL | < -0.25
24 | IYGVLTRVGQ | < -0.25
25 | IYGYGLLLTRIFHSLHSSRL | < -0.25
26 | IYHGAYTAIDARTRRGRTQA | -0.223

Row | Substance | growth estimate
27 | IYHNIPVGGALPALRRPKRE | < -0.25
28 | IYKRRCSGQ | < -0.25
29 | IYLVHTVTKFYRGV | < -0.25
30 | IYQCSDFSEFHFRS | -0.225
31 | IYQVPGFYTEIGVRYPSSLL | < -0.25
32 | IYRAQPSP | < -0.25
33 | IYRVVY | < -0.25
34 | IYRWSSFVP | < -0.25
35 | IYS | < -0.25
36 | IYSDCAGASPVNQLYGTVSG | < -0.25
37 | IYSRVVGYYNPYRACAQQSQ | < -0.25
38 | IYTRCNCTPL | < -0.25
39 | IYVCC | < -0.25
40 | IYVNIFTVEVAGGASKNDVS | < -0.25
41 | IYVQAGNLAHKTSF | -0.246
42 | KAAQFWGVRLWTIGPRLVTT | < -0.25
43 | KACSYD | < -0.25
44 | KADISRGVFPDYG | -0.246
45 | KADVGSTKAKIVSHMQMRLH | < -0.25
46 | KAEFIAGILRLHISESRAAG | < -0.253
47 | KAGHLAGGLFSRSKLVTL | < -0.25
48 | KAHEVS | < -0.25
49 | KAIRSLF | < -0.25
50 | KANALGSRPKRPVRQGDPVC | < -0.25
51 | KAPLNERLWSTWCAASRVGR | < -0.25
52 | KAQAEKHGRLEEN | < -0.25

Records 19 to 21, reprinted for reference:
Row | Substance | growth estimate
19 | IWYLIMTCTVVLRLVKCYRV | < -0.25
20 | IYACTEIYLRSPNGQFELPR | < -0.25
21 | IYARVLCLRS | -0.229

(continued)

Row | Substance | growth estimate
53 | KARDA | < -0.25
54 | KATHGLAM | < -0.25
55 | KATTGGILKKEDSRHVKTCH | 0.0323
56 | KAV | < -0.25
57 | KAVSCNSA | < -0.25
58 | KCA | < -0.25
59 | KCDSPGVKVSGLLGMSL | < -0.25
60 | KCGQGSTGF | < -0.25
61 | KCQPNGALDRYSGVNTRCLG | < -0.25
62 | KCTSRLMDGSLGVTAWAIGS | < -0.25
63 | KCVHRDPCSRWS | < -0.25
64 | KDILLL | < -0.25
65 | KDLTVMAVSGW | < -0.25
66 | KDLWGWHG | -0.246
67 | KDMDLRPNGR | < -0.25
68 | KDPSLQSRV | < -0.25
69 | KDSDVITRAM | < -0.25
70 | KEAWEPALITQVPGNQSSAG | < -0.25
71 | KEHLLNGPQGESTLCPP | < -0.25
72 | KEIGSQFLDEAQVGFPPGVA | < -0.25
73 | KEIRWRAGKASCQGLNTRRM | < -0.25
74 | KEPGYRQYNGGTTLRLLSFY | < -0.25
75 | KESNESTMNQRYTRRKVS | < -0.25
76 | KEVW | < -0.25
77 | KFISS | < -0.25
78 | KFKIWN | < -0.25

In a second layout: entries from further up
KDILLL
  growth estimate: < -0.25
KEAWEPALITQVPGNQSSAG
  growth estimate: < -0.25

Carrying on.

Row | Substance | growth estimate
79 | KFKLGAIRVEFWAGLDRDGT | < -0.25
80 | KFLNRPPHVDLRIC | < -0.25
81 | KFNHAGPPRTFDGVVTLYVL | < -0.25
82 | KFRSCWQALWALRVGLH | < -0.25
83 | KFSLVGSPGAGQVRGASLVR | < -0.25
84 | KFSVSIV | < -0.25
85 | KFTKDSVFISEILISNGDAL | < -0.25
86 | KFTSVDTSVMNHLEIRDPLA | < -0.25
87 | KFWSKNSRTGKHRGT | < -0.25
88 | KGARYLSFRLLTGNSVVANL | < -0.25
89 | KGEG | < -0.25
90 | KGEGCGYQEYQNRSR | < -0.25
91 | KGELVRDATGPRILSSTCHP | < -0.25
92 | KGEPNGRPLNPLNLQQ | < -0.25
93 | KGFGPREPDETSPEQCEQTI | < -0.25
94 | KGFVGSNECGNYITSEEHSS | < -0.25
95 | KGGAVLSLNPT | < -0.25
96 | KGGRSQTSSE | < -0.25
97 | KGGSRVGLEGRVRAYSNRQV | < -0.25
98 | KGGSWG | < -0.25
99 | KGIALRRFTGVCNEQFGAVG | < -0.25
100 | KGKHIRVLVCSRQCHIKVVH | < -0.25
101 | KGKMNRHDYNAQVCLDDRWL | < -0.25
102 | KGKQHWLMD | < -0.25
